Assay results as given in patent US10695360B2, “Adiponectin secretion enhancer” (WASHINGTON UNIVERSITY, priority 2017, dated 2020).

System: ANKO mice (adipose tissue-specific NAMPT knockout mice)
Test: NAD+ precursor rescue experiments in ANKO mice (Example 5)
Format: in vivo, mouse
Settings: NMN-treated ANKO mice, 500 mg/kg body weight/day, 4 to 6 weeks; mean ±SE
Excerpt: To determine whether metabolic derangements depend on the defects in NAD+ biosynthesis in ANKO mice, we treated mice with NMN, a key NAD+ intermediate and the product of the NAMPT reaction (FIG. 6A). In the diagram, “NA” represents nicotinic acid, “NaMN” represents nicotinic acid mononucleotide, “NIC” represents nicotinamide, “NR” represents nicotinamide riboside, “Tip” represents tryptophan, and “NAPRT” represents nicotinate phosphoribosyl transferase. NMN is a product of an enzyme reaction mediated by NAMPT and is converted directly to NAD+. Nicotinic acid is a precursor in the NAPRT-dependent NAD+ biosynthesis pathway.
ANKO mice were generated by using adiponectin-Cre transgenic mice and floxed-Nampt mice as previously described (Noon et al., 2015). Mice were maintained on a standard chow diet (LabDiet 5053; LabDiet) ad libitum. For RSG rescue experiments, ANKO mice received a chow containing RSG (#71740; Cayman Chemical) at the approximate dose of 20 mg/kg body Weight/day soon after weaning for up to 7 weeks. For NAD+ precursor rescue experiments, we administered NMN (#44500900; Oriental Yeast) and NA (#72309; Sigma-Aldrich) in drinking water, at the approximate dose of 500 mg/kg of body weight, to ANKO mice soon after weaning for up to 2 months.
More specifically, drinking water containing NMN (500 mg/kg body weight/day) was administered to the female ANKO mice and metabolic parameters were investigated after administering NMN for 4 to 6 weeks. […]
FIG. 6B indicates the results of measuring […] levels in adipose tissue for female ANKO mice administered NMN for 4 to 6 weeks (500 mg/kg body weight day) and non-dosed female ANKO mice of the same age (per group, n=5 to 7). NAD+ levels were measured with an HPLC (high-performance liquid chromatography) system using a Supelco LC-18-T column (#58970-U, Sigma-Aldrich Corp.) (Yoon, et al., Cell Metabolism, 2015, Vol. 21, p. 706-717). […]

NC(=O)c1ccc[n+]([C@@H]2O[C@H](COP(=O)([O-])O)C(O)[C@H]2O)c1 (stereo partly drawn) [β-NMN, Nicotinamide mononucleotide]
body temperature: 36.7±0.3 _C
body weight: 18.0 ± 0.5 g
daily food intake: 0.21±0.01 g/g of body weight
